Values from PubChem BioAssay AID1259424 (University of Nebraska Medical Center, 2018)

- Purpose: 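Find knockdowns that reproduce the expression shifts seen after KSR1 loss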 (primary screen)
- Cell system: human HCT116 colon cancer cells
- Knock-down reagent: siRNA pool against human genes, 50 nM
- Detection: 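Six signature mRNAs by branched-DNA multiplex assay, scaled to two housekeeping genes and non-targeting median, log2; matched to mean KSR1 knockdown profile by Pearson correlation and euclidean distance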
- Reading the numbers: mean correlation with KSR1 profile and KSR1 correlation: higher = expression change more like KSR1 knockdown; mean distance from KSR1 profile: higher = expression change less like KSR1 knockdown
In all, the deposit lists about 14,000 reagents; shown is an unselected part. 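Higher correlation or smaller distance means closer resemblance to KSR1 loss; control wells, including KSR1 knockdowns, recur on many plates.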 No sequences are given here. Not stated in the record: the time to read-out.

Target gene,mean correlation with KSR1 profile,mean distance from KSR1 profile,"KSR1 correlation, replicate 1","KSR1 correlation, replicate 2","KSR1 correlation, replicate 3"
PSD4,0.0127,2.18,0.0806,0.114,-0.337
SPINK2,0.107,1.69,0.135,-0.0338,0.268
BRAP,-0.366,1.3,-0.22,-0.34,-0.635
PDCD11,0.416,2.75,0.32,0.282,0.696
TAS1R1,0.479,3.6,0.58,0.557,0.444
STX17,0.152,1.92,0.2,-0.137,0.232
PFDN2,-0.663,2.61,-0.619,-0.712,-0.633
SMYD5,0.118,2.32,-0.428,0.0277,0.554
MRTFB,0.291,1.74,0.204,-0.322,0.327

Copied from the list:
Under “KSR1 correlation, replicate 3”, MRTFB shows 0.327
Result of TAS1R1 in “KSR1 correlation, replicate 2”: 0.557

The listing continues:
Target gene,mean correlation with KSR1 profile,mean distance from KSR1 profile,"KSR1 correlation, replicate 1","KSR1 correlation, replicate 2","KSR1 correlation, replicate 3"
SERINC1,-0.762,2.57,-0.745,-0.733,-0.625
SOX21,0.366,1.7,0.337,0.332,0.295
PERP,0.199,2.72,0.0963,0.106,0.0995
MIER3,0.0366,1.37,-0.238,-0.314,-0.0276
NAGPA,-0.367,1.62,-0.479,-0.273,-0.144
UCK1,0.0598,1.67,0.334,0.0504,-0.22
OPTC,-0.679,3.05,-0.517,-0.801,-0.576
AMBRA1,-0.364,5.2,0.126,-0.308,-0.193
UXS1,0.106,1.85,0.126,-0.0963,-0.083
LRP8,-0.531,4.02,-0.511,-0.518,-0.594
RBM34,-0.155,2.6,0.168,-0.36,-0.00917
